{
  "source": "patent US4001207A",
  "about": "“Tertiary-aliphatic amidazo compounds” (priority 1971, dated 1977)",
  "key": {"[1]": {"assay": "Curing an unsaturated polyester-styrene resin", "details": "for cure of the resin, in words: hardness of the cured resin / gelling"}, "[2]": {"assay": "Oxidation of iodide ion to free iodine"}, "[3]": {"assay": "Emulsion polymerization of ethyl acrylate", "details": "3.65 × 10^-^4 moles initiator, 85°-87° C.; listed as α-tert-butylazo-α-methyl-γ-carboxy-butyronitrile"}, "[4]": {"details": "180° F. (82.2° C.), 1.0 weight per cent loading"}, "[5]": {"details": "265° F. (129.4° C.), 1.0 weight per cent loading"}, "[6]": {"details": "212° F. (100° C.), 1.0 weight per cent loading"}, "[7]": {"details": "240° F. (115.6° C.), 1.0 weight per cent loading"}},
  "note": "Some entries repeat one wording, which the source may state once for all of them.",
  "data": [
    {"smiles": "CNC(=O)N=NC(C)(C)C", "note": "[XIV, tert.-butylazo-N-methylformamide]", "values": [
      {"measurement": "cure of the resin, in words", "setting": "[1]", "result": "very hard"}
    ]},
    {"smiles": "CC(C)(C)N=NC(C)(C)C#N", "note": "[Example I, Alpha-(tert.-butylazo) isobutyronitrile]", "values": [
      {"measurement": "time to peak exotherm", "setting": "[1]; 212° F. (100° C.), 0.128 gram in 20 grams of blend", "result": 4.9, "unit": "min"},
      {"measurement": "cure of the resin, in words", "setting": "[1]", "result": "vary hard"}
    ]},
    {"smiles": "CC(C)(C)N=NC(=O)C(C)(C)C", "note": "[Example XIX, Pivaloyl tert.-butyldiimide]", "values": [
      {"measurement": "time to peak exotherm", "setting": "[1]; [4]", "result": 4.9, "unit": "min"},
      {"measurement": "cure of the resin, in words", "setting": "[1]", "result": "very hard"}
    ]},
    {"smiles": "CC(C)(C)N=NC(C)(C#N)C1CC1", "note": "(stereo not drawn) [Example XII, Alpha-tert-butylazo-alpha-cyclopropylpropionitrile]", "values": [
      {"measurement": "time to peak exotherm", "setting": "[1]; 180° F. (82.2° C.)", "result": 3.3, "unit": "min"},
      {"measurement": "peak exotherm", "setting": "[1]; 212° F. (100° C.)", "result": 420, "unit": "° F."},
      {"measurement": "time to peak exotherm", "setting": "[1]; 212° F. (100° C.)", "result": 2.1, "unit": "min"},
      {"measurement": "cure of the resin, in words", "setting": "[1]", "result": "very hard"}
    ]},
    {"smiles": "CC(C)(N=NC(N)=O)c1ccccc1", "note": "[XVIII, Tert.-cumylazoformamide]", "values": [
      {"measurement": "oxidation of iodide ion", "setting": "[2]", "result": "oxidized iodide ion to free iodine"},
      {"measurement": "time to peak exotherm", "setting": "[1]; [5]", "result": 6.0, "unit": "min"},
      {"measurement": "cure of the resin, in words", "setting": "[1]", "result": "very hard"}
    ]},
    {"smiles": "CC(C)CC(C#N)(CC(C)C)N=NC(C)(C)C", "note": "[Example VII, 4-tert.-butylazo-4-cyano-2,6-dimethylheptane]", "values": [
      {"measurement": "time to peak exotherm", "setting": "[1]; [4]", "result": 2.8, "unit": "min"},
      {"measurement": "cure of the resin, in words", "setting": "[1]", "result": "very hard"}
    ]},
    {"smiles": "CN(C)C(=O)N=NC(C)(C)C", "note": "[XV, tert.-butylazo-N,N-dimethylformamide]", "values": [
      {"measurement": "oxidation of iodide ion", "setting": "[2]", "result": "oxidized iodide ion to free iodine"}
    ]},
    {"smiles": "CC(C)(C#N)N=NC(C)(C)c1ccccc1", "note": "[Example XI, Alpha-(tert.-cumylazo)isobutyronitrile]", "values": [
      {"measurement": "time to peak exotherm", "setting": "[1]; [4]", "result": 1.3, "unit": "min"},
      {"measurement": "cure of the resin, in words", "setting": "[1]", "result": "very hard"}
    ]},
    {"smiles": "CC(C)(C)N=Nc1nc(N=NC(C)(C)C)nc(N=NC(C)(C)C)n1", "note": "[XXI, 2,4,6-Tri-(tert.-butylazo)-1,3,5-triazine]", "values": [
      {"measurement": "oxidation of iodide ion", "setting": "[2]", "result": "oxidized iodide ion to free iodine"}
    ]},
    {"smiles": "CC(C)(C)N=NC(C)(C#N)CCC(=O)O", "note": "(stereo not drawn) [Example X, alpha-tert.-butylazo-alpha-methyl-gamma-carboxybutyronitrile]", "values": [
      {"measurement": "peak exotherm", "setting": "[1]; [4]", "result": 410, "unit": "° F."},
      {"measurement": "time to peak exotherm", "setting": "[1]; [4]", "result": 8.5, "unit": "min"},
      {"measurement": "time to peak exotherm", "setting": "[1]; [6]", "result": 3.8, "unit": "min"},
      {"measurement": "cure of the resin, in words", "setting": "[1]", "result": "very hard"},
      {"measurement": "conversion of monomer to polymer", "setting": "[3]", "result": 94, "unit": "%"}
    ]},
    {"smiles": "CC(C)(C)N=NC(=O)c1ccccc1", "note": "[Example XX, Benzoyl tert.-butyldiimide]", "values": [
      {"measurement": "time to peak exotherm", "setting": "[1]; [4]", "result": 10.0, "unit": "min"},
      {"measurement": "cure of the resin, in words", "setting": "[1]", "result": "hard"}
    ]},
    {"smiles": "COC(=O)CNC(=O)N=NC(C)(C)C", "note": "[XVI, tert.-butylazo-N-carbmethoxymethylformamide]", "values": [
      {"measurement": "oxidation of iodide ion", "setting": "[2]", "result": "oxidized iodide ion to free iodine"},
      {"measurement": "time to peak exotherm", "setting": "[1]; [5]", "result": 5.1, "unit": "min"},
      {"measurement": "cure of the resin, in words", "setting": "[1]", "result": "very hard"}
    ]},
    {"smiles": "CC(C)(C)N=NC1=CCCCC1", "note": "[XXIII, 1(-tert.-butylazo)cyclohexene]", "values": [
      {"measurement": "cure of the resin, in words", "setting": "[1]", "result": "gelled the unsaturated polyester-styrene resin of Example III at room temperature"}
    ]},
    {"smiles": "CC(C)(C)N=NC(=O)NCC(=O)O", "note": "[XVII, tert.-butylazo-N-carboxymethylformamide]", "values": [
      {"measurement": "oxidation of iodide ion", "setting": "[2]", "result": "oxidized iodide ion to free iodine"}
    ]},
    {"smiles": "CC(C)(C)N=NC(C)(C)C(N)=O", "note": "[XXV, 2-t-butylazo-2-carbamylpropane]", "values": [
      {"measurement": "time to peak exotherm", "setting": "[1]; [7]", "result": 5.7, "unit": "min"}
    ]},
    {"smiles": "CC(C)(C)N=NC1(C#N)CCCCC1", "note": "[IV, 1-tert.-butylazo-1-cyanocyclohexane]", "values": [
      {"measurement": "cure of the resin, in words", "setting": "[1]", "result": "very hard"}
    ]},
    {"smiles": "CC(C)(C)N=NC(C)(C#N)C(C)(C)C", "note": "(stereo not shown) [IX, 2-tert.-butylazo-2-cyano-3,3-dimethylbutane]", "values": [
      {"measurement": "peak exotherm", "setting": "[1]; 212° F. (100° C.)", "result": 430, "unit": "° F."},
      {"measurement": "time to peak exotherm", "setting": "[1]; 212° F. (100° C.)", "result": 4.9, "unit": "min"},
      {"measurement": "cure of the resin, in words", "setting": "[1]", "result": "very hard"}
    ]},
    {"smiles": "CC(C)(C)N=NC(N)=O", "note": "[Example XIII, tert.-butylazoformamide]", "values": [
      {"measurement": "time to peak exotherm", "setting": "[1]; [6]", "result": 7.1, "unit": "min"},
      {"measurement": "peak exotherm", "setting": "[1]; [7]", "result": 430, "unit": "° F."},
      {"measurement": "time to peak exotherm", "setting": "[1]; [7]", "result": 5.9, "unit": "min"},
      {"measurement": "time to peak exotherm", "setting": "[1]; [5]", "result": 4.5, "unit": "min"},
      {"measurement": "cure of the resin, in words", "setting": "[1]", "result": "very hard"}
    ]},
    {"smiles": "CC1CC(C)(C)CC(C#N)(N=NC(C)(C)C)C1", "note": "(stereo not shown) [VIII, 1-tert.-butylazo-1-cyano-3,3,5-trimethylcyclohexane]", "values": [
      {"measurement": "time to peak exotherm", "setting": "[1]; [4]", "result": 9.4, "unit": "min"},
      {"measurement": "cure of the resin, in words", "setting": "[1]", "result": "very hard"}
    ]},
    {"smiles": "CC(C)(C)N=NC1(C(N)=O)CCCCC1", "note": "[XXIV, 1-tert. butylazo-1-carbamylcyclohexane]", "values": [
      {"measurement": "time to peak exotherm", "setting": "[1]; [7]", "result": 6.8, "unit": "min"}
    ]}
  ]
}
